From patent US20240150449A1
Results are given in words; binding and its absence hold for the method and conditions named. Some results given as binding are weak or reduced against the parent protein; the word gives no strength.

Amino acid sequences for entries named in this document (tags omitted). A change or cut given only in a name is not applied to a line headed by its entry. Residues count along the entry.
UniProt Q13148: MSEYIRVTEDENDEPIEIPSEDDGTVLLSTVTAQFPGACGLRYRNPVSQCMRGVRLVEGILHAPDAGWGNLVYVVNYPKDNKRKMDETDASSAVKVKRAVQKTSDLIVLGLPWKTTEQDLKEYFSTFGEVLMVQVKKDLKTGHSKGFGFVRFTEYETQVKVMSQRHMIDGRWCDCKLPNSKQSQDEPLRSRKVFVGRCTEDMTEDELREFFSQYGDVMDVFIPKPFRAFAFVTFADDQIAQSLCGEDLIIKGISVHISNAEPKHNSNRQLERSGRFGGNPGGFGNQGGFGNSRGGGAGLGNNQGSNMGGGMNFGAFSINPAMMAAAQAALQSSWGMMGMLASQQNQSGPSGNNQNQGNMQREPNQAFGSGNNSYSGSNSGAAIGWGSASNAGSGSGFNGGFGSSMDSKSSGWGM
UniProt P02769, residues 25-607: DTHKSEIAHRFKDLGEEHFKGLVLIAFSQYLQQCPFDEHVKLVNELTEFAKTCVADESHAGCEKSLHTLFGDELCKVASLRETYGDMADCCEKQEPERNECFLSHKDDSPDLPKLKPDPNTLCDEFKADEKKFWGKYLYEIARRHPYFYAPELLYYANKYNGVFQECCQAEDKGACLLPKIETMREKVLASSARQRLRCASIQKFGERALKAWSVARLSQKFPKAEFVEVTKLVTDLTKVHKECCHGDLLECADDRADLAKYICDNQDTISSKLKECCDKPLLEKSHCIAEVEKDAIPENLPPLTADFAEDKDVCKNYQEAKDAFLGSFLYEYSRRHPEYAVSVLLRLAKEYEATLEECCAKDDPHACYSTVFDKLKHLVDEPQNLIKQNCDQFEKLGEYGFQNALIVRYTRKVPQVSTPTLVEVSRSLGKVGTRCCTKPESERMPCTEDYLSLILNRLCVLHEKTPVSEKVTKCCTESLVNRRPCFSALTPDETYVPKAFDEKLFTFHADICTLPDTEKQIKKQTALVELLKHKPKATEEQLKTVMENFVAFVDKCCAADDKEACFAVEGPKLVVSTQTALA

Tests used:
[1] = substrate: C terminal fragment of 25 kDa of TDP-43 (CTF25) from FTLD patient brain (human) (UniProt Q13148); assay: Western blot of SarkoSpin pellets of FTLD brain
BSA (bovine) = BSA (bovine) (UniProt P02769); assay: ELISA on BSA as control antigen

B1: antibody 31F3 (human IgG) (antibody, V domains shown)
VH: QVQLEQSGAEVKRPGASVKVSCKASGYTFTGYYLHWVRQAPGQGLEWMGRINPGSGGTKYAQKFQGRVSMTRDTSISTAYMEVNRLRPDDTAVYYCARYQVYGERGRYMDVWGKGTTVTVSS
VL: QSALTQPASVSGSPGQSITISCTGTSSDVGTYDLVSWYQQHPGKAPKLIIYEDNKRPSGLSNRFSGSKSGNTASLTISGLQADDEADYYCCSYAAISTLIFGGGTKVTVL
- binding [1]: binds
- binding (BSA (bovine)): no binding (tested: log 3.3 ng/ml (about 2000 ng/ml))
